Measured values published in PubChem BioAssay AID248 (DTP/NCI, 2004).
The list shows only some results of the screen, not a fair sample: it is rich in T/C values a quarter to a half above the control, in often repeated tests (any T/C) and in doses without a T/C. Further doses and runs are listed elsewhere. T/C: endpoint of the treated group in % of that of the vehicle group. Some entries give survivors of the animals treated and no T/C: the source files T/C as zero there, which appears to mark a toxic dose or a test without result, not a measured value. Some survivor counts are full or nearly so, which does not show that the dose was tolerated: the source hardly ever lists a survival T/C far under the control, and the zero likely stands for such cases as well. Counts of survivors are from the toxicity check (mostly the fifth day) where no day follows; animals may have died later. Schedules are NCI's codes, taken here to give the interval after Q, in days (D) or hours (H), and the number of doses after X. Some entries were tested several times; their values stand side by side, smallest first. Signs of the kind (2×) stand for listed records that agree. For survival time, this PubChem deposit counts one and a half times the control or more as active, and values a quarter to a half above the control carry no call in these data; other NCI protocols may use other cut-offs. Some T/C values carry the count of animals alive at the toxicity check (mostly the fifth day); without a count, all were alive then. Some schedule codes hold Z or #, which are not explained here.

Tested on: L1210 leukemia ip in BDF1 mice, survival T/C
Test: NCI In Vivo Anticancer Drug Screen. Data for tumor model L1210 Leukemia (intraperitoneal) in B6D2F1 (BDF1) mice
Conditions: T/C endpoint: median survival time, higher T/C = longer survival

Q: How did the T/C (dose: 8.0 mg/kg/injection, schedule: Q01DX001 (ip), vehicle: saline, evaluated on day 30) turn out when `COc1cccc2c1C(=O)c1c(O)c3c(c(O)c1C2=O)C[C@@](O)(C(=O)CO)C[C@@H]3OC1CC(N)C(O)C(C)O1` (stereo not given in full) was run?
A: 226 % of control

Q: What about the T/C (dose: 8.0 mg/kg/injection, schedule: Q01DX001 (ip), vehicle: saline, evaluated on day 60) of the same compound?
A: 149, 151, 155, 160 [9 of 10 alive], 168 % of control

Q: And the T/C (dose: 8.0 mg/kg/injection, schedule: Q01DX001 (ip), vehicle: water, evaluated on day 5)?
A: 127 and 130 % of control

Q: What about the T/C (dose: 8.0 mg/kg/injection, schedule: Q01DX001 (ip), vehicle: water, evaluated on day 21) of the same compound?
A: 130 % of control

Q: And the T/C (dose: 8.0 mg/kg/injection, schedule: Q01DX001 (ip), vehicle: water, evaluated on day 30)?
A: 127 % of control

Q: And the T/C (dose: 8.0 mg/kg/injection, schedule: Q## X001 (ip), vehicle: saline)?
A: 139 % of control

Q: What about the survivor count (dose: 8.3 mg/kg/injection, schedule: Q04DX003 (ip), vehicle: water) of the same compound?
A: 10 of 10

Q: And the T/C (dose: 8.4 mg/kg/injection, schedule: Q01DX001 (ip), vehicle: water, evaluated on day 7)?
A: 109 and 119 % of control

Q: And the T/C (dose: 8.4 mg/kg/injection, schedule: Q01DX001 (ip), vehicle: water, evaluated on day 24)?
A: 111 and 122 % of control

Q: What about the T/C (dose: 8.4 mg/kg/injection, schedule: Q01DX001 (ip), vehicle: water, evaluated on day 30) of the same compound?
A: 110 % of control

Q: What about the T/C (dose: 8.4 mg/kg/injection, schedule: Q01DX001 (ip), vehicle: water, evaluated on day 33) of the same compound?
A: 150 % of control

Q: And the T/C (dose: 8.4 mg/kg/injection, schedule: Q01DX001 (ip), vehicle: water, evaluated on day 60)?
A: 118 and 122 % of control

Q: And the T/C (dose: 8.4 mg/kg/injection, schedule: Q03HX008 (ip), vehicle: water, evaluated on day 7)?
A: 78, 83, 94 % of control

Q: What about the T/C (dose: 8.4 mg/kg/injection, schedule: Q03HX008 (ip), vehicle: water, evaluated on day 60) of the same compound?
A: 94 % of control

Q: And the survivor count (dose: 8.4 mg/kg/injection, schedule: Q03HX008 (ip), vehicle: water)?
A: 7 of 8 and 8 of 8

Q: And the T/C (dose: 8.4 mg/kg/injection, schedule: Q04DX003 (ip), vehicle: water, evaluated on day 5)?
A: 89 and 94 % of control

Q: And the T/C (dose: 8.4 mg/kg/injection, schedule: Q04DX003 (ip), vehicle: water, evaluated on day 7)?
A: 106, 115, 122, 134 % of control

Q: And the T/C (dose: 8.4 mg/kg/injection, schedule: Q04DX003 (ip), vehicle: water, evaluated on day 24)?
A: 111 % of control

Q: What about the T/C (dose: 8.4 mg/kg/injection, schedule: Q04DX003 (ip), vehicle: water, evaluated on day 31) of the same compound?
A: 122 % of control

Q: What about the T/C (dose: 8.4 mg/kg/injection, schedule: Q04DX003 (ip), vehicle: water, evaluated on day 40) of the same compound?
A: 134 % of control

Q: What about the T/C (dose: 8.4 mg/kg/injection, schedule: Q04DX003 (ip), vehicle: water, evaluated on day 60) of the same compound?
A: 90 (2×), 94, 115, 118 % of control

Q: What about the T/C (dose: 8.4 mg/kg/injection, schedule: Q12DX002 (ip), vehicle: water, evaluated on day 7) of the same compound?
A: 135 % of control

Q: And the T/C (dose: 8.4 mg/kg/injection, schedule: Q12DX002 (ip), vehicle: water, evaluated on day 24)?
A: 138 % of control

Q: What about the T/C (dose: 10.0 mg/kg/injection, schedule: Q01DX001 (ip), vehicle: water, evaluated on day 5) of the same compound?
A: 138, 142, 153 % of control

Q: What about the T/C (dose: 10.0 mg/kg/injection, schedule: Q01DX001 (ip), vehicle: water, evaluated on day 30) of the same compound?
A: 127 and 133 % of control

Q: And the T/C (dose: 10.0 mg/kg/injection, schedule: Q01DX001 (ip), vehicle: water, evaluated on day 46)?
A: 144 % of control

Q: What about the T/C (dose: 10.0 mg/kg/injection, schedule: Q01DX001 (ip), vehicle: water, evaluated on day 61) of the same compound?
A: 121 % of control

Q: What about the T/C (dose: 10.0 mg/kg/injection, schedule: Q08DX002 (ip), vehicle: water) of the same compound?
A: 147 % of control

Q: What about the T/C (dose: 14.0 mg/kg/injection, schedule: Q01DX001 (ip), vehicle: water, evaluated on day 7) of the same compound?
A: 120 and 132 % of control

Q: And the T/C (dose: 14.0 mg/kg/injection, schedule: Q01DX001 (ip), vehicle: water, evaluated on day 24)?
A: 122 and 133 % of control

Q: And the T/C (dose: 14.0 mg/kg/injection, schedule: Q01DX001 (ip), vehicle: water, evaluated on day 33)?
A: 94 % of control

Q: And the T/C (dose: 14.0 mg/kg/injection, schedule: Q01DX001 (ip), vehicle: water, evaluated on day 60)?
A: 104 % of control

Q: And the survivor count (dose: 14.0 mg/kg/injection, schedule: Q01DX001 (ip), vehicle: water)?
A: 7 of 8 and 8 of 8

Q: What about the T/C (dose: 14.0 mg/kg/injection, schedule: Q04DX003 (ip), vehicle: water, evaluated on day 7) of the same compound?
A: 116 and 139 % of control

Q: And the T/C (dose: 14.0 mg/kg/injection, schedule: Q04DX003 (ip), vehicle: water, evaluated on day 24)?
A: 144 % of control

Q: And the T/C (dose: 14.0 mg/kg/injection, schedule: Q04DX003 (ip), vehicle: water, evaluated on day 60)?
A: 113 and 116 % of control

Q: And the survivor count (dose: 14.0 mg/kg/injection, schedule: Q04DX003 (ip), vehicle: water)?
A: 7 of 8

Q: And the T/C (dose: 14.0 mg/kg/injection, schedule: Q12DX002 (ip), vehicle: water, evaluated on day 7)?
A: 132 % of control

Q: What about the T/C (dose: 14.0 mg/kg/injection, schedule: Q12DX002 (ip), vehicle: water, evaluated on day 24) of the same compound?
A: 133 % of control

Q: And the T/C (dose: 16.0 mg/kg/injection, schedule: Q01DX001 (ip), vehicle: saline, evaluated on day 5)?
A: 97, 102, 143, 146, 168, 178, 199, 622 % of control

Q: And the T/C (dose: 16.0 mg/kg/injection, schedule: Q01DX001 (ip), vehicle: saline, evaluated on day 30)?
A: 168 % of control [9 of 10 alive]

Q: And the T/C (dose: 16.0 mg/kg/injection, schedule: Q01DX001 (ip), vehicle: saline, evaluated on day 60)?
A: 102, 146 [8 of 10 alive], 178 [9 of 10 alive], 200 [9 of 10 alive], 258 % of control [9 of 10 alive]

Q: What about the T/C (dose: 16.0 mg/kg/injection, schedule: Q01DX001 (ip), vehicle: water, evaluated on day 5) of the same compound?
A: 63 and 95 % of control

Q: And the T/C (dose: 16.0 mg/kg/injection, schedule: Q01DX001 (ip), vehicle: water, evaluated on day 21)?
A: 95 % of control

Q: And the survivor count (dose: 16.0 mg/kg/injection, schedule: Q01DX001 (ip), vehicle: water)?
A: 7 of 8

Q: And the T/C (dose: 16.0 mg/kg/injection, schedule: Q## X001 (ip), vehicle: saline)?
A: 143 % of control

Q: And the T/C (dose: 20.0 mg/kg/injection, schedule: Q01DX001 (ip), vehicle: water, evaluated on day 5)?
A: 67, 71, 84 % of control

Q: And the T/C (dose: 20.0 mg/kg/injection, schedule: Q01DX001 (ip), vehicle: water, evaluated on day 30)?
A: 90 % of control

Q: And the survivor count (dose: 20.0 mg/kg/injection, schedule: Q01DX001 (ip), vehicle: water)?
A: 7 of 8 (2×), 9 of 10, 8 of 8

Q: What about the survivor count (dose: 20.0 mg/kg/injection, schedule: Q08DX002 (ip), vehicle: water) of the same compound?
A: 10 of 10 and 8 of 8

Q: What about the T/C (dose: 23.0 mg/kg/injection, schedule: Q01DX001 (ip), vehicle: water, evaluated on day 7) of the same compound?
A: 84 and 119 % of control

Q: And the T/C (dose: 23.0 mg/kg/injection, schedule: Q01DX001 (ip), vehicle: water, evaluated on day 24)?
A: 122 % of control

Q: And the T/C (dose: 23.0 mg/kg/injection, schedule: Q01DX001 (ip), vehicle: water, evaluated on day 60)?
A: 95 % of control

Q: What about the survivor count (dose: 23.0 mg/kg/injection, schedule: Q01DX001 (ip), vehicle: water) of the same compound?
A: 5 of 8, 6 of 8 (2×), 8 of 8

Q: What about the survivor count (dose: 32.0 mg/kg/injection, schedule: Q01DX001 (ip), vehicle: water) of the same compound?
A: 6 of 6
